Reference: the M2OR odorant receptor database
Only a part is listed here, and it is no random draw. Calls are pooled over several reports, among them a noisy single-well screen. The list shows a part of the results. Some of the results follow.

Chains of the proteins cited; added tags and fusions are not shown. Chains listed by the source or under a name are the forms on record and can include a tag or linker.
OR2T1, as listed by the source: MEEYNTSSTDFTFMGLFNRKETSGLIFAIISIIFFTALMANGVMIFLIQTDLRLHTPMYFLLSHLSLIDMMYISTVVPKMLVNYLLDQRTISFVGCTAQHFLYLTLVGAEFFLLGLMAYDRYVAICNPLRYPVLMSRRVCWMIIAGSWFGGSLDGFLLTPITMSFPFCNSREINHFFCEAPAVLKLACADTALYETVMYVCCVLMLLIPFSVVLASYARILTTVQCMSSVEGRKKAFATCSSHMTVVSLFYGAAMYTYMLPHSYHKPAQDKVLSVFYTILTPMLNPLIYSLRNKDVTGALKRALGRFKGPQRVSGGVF

Legend:
Conditions in all cases: stereoisomer not certain
OR2T1 [1] = system: T1, OR2T1
T1 sequence (whole entry): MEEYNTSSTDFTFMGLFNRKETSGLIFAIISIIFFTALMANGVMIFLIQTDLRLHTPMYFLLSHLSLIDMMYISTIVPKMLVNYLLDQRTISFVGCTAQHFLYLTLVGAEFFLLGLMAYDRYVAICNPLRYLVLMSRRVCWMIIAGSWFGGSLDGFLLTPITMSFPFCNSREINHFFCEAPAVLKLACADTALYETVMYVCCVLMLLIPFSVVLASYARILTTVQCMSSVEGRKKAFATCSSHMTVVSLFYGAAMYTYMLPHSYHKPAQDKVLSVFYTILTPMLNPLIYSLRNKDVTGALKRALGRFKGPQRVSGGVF
Method in brief: (§1)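 Transient luciferase assays in mammalian cell lines were common, though methods varied by source. The values come from published papers and their supplementary material, with extra details from the original authors when needed. Responsive refers to a measured signal the original authors judged statistically different from baseline, and non-responsive (inactive) to the remainder.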

OR2T2 = system: T2, OR2T2
T2 sequence (whole entry): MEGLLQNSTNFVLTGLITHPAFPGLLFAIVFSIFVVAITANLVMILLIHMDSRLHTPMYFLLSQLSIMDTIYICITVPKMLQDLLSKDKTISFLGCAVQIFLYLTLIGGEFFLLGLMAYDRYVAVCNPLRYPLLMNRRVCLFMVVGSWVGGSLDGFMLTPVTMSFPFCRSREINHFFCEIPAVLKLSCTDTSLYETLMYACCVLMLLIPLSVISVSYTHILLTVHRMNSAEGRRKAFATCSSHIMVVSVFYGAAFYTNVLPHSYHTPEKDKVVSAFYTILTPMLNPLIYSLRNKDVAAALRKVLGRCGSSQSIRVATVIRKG
Method in brief: as §1

OR2T3 (Homo sapiens) = molecular target: T3, OR2T3 (Homo sapiens) (UniProt Q8NH03)
T3 sequence (whole entry): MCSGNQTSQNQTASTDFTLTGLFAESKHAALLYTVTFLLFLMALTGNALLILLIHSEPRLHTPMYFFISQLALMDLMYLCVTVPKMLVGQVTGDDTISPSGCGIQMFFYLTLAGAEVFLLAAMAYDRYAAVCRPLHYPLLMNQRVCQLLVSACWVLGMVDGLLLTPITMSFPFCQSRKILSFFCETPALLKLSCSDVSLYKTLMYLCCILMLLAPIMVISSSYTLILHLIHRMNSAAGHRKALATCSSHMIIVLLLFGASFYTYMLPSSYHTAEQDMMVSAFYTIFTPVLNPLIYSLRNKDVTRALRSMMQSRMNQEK
Method in brief: as §1

OR2T4 (Homo sapiens) = molecular target: T4, OR2T4 (Homo sapiens) (UniProt Q8NH00)
T4 sequence (whole entry): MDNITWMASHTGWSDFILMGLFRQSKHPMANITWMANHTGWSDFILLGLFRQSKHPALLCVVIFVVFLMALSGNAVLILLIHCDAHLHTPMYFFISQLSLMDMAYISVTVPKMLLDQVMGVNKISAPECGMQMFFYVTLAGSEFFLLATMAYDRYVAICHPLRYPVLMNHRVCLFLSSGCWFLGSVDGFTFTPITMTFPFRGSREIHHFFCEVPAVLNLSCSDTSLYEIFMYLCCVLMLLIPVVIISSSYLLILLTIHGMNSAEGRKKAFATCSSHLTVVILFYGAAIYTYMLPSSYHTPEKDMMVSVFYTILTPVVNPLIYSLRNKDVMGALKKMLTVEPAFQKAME
Method in brief: as §1

OR2T4 = system: T5, OR2T4
T5 sequence (whole entry): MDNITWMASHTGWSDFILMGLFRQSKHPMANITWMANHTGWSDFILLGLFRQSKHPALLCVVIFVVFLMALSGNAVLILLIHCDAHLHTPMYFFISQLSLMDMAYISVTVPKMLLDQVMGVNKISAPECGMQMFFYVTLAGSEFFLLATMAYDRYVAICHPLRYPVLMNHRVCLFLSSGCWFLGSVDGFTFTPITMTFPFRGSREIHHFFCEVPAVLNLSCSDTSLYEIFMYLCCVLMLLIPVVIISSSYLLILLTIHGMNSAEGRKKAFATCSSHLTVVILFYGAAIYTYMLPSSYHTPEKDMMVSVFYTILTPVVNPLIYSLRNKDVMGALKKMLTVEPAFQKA
Method in brief: as §1

OR2T5 = system: T6, OR2T5
T6 sequence (whole entry): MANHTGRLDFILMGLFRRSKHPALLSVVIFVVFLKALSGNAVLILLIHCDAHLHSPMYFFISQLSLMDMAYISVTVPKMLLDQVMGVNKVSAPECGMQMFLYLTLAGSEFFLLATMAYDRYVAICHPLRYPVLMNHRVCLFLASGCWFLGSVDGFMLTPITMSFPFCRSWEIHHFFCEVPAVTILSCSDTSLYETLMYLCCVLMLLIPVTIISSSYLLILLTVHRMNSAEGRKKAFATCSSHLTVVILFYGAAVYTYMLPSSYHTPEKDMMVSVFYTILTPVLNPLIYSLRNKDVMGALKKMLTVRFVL
Method in brief: as §1

OR2T6 = system: T7, OR2T6
T7 sequence (whole entry): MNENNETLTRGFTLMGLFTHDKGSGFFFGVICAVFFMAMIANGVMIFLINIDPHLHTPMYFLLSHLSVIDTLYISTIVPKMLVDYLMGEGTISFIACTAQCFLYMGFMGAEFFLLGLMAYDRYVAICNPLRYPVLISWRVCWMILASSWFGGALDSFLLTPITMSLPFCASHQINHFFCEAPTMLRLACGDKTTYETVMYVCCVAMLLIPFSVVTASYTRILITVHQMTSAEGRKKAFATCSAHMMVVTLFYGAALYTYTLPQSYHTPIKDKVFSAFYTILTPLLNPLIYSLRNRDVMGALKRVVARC
Method in brief: as §1

OR2T8 = system: T8, OR2T8
T8 sequence (whole entry): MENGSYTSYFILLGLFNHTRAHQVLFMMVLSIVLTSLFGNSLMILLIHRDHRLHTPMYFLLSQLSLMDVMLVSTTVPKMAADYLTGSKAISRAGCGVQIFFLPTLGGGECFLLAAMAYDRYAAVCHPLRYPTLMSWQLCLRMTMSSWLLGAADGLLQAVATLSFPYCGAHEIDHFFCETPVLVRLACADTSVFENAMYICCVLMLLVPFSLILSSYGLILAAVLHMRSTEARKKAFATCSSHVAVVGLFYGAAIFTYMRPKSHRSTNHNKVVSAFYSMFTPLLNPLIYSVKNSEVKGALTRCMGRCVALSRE
Method in brief: as §1

OR2V1 = system: T9, OR2V1
T9 sequence (whole entry): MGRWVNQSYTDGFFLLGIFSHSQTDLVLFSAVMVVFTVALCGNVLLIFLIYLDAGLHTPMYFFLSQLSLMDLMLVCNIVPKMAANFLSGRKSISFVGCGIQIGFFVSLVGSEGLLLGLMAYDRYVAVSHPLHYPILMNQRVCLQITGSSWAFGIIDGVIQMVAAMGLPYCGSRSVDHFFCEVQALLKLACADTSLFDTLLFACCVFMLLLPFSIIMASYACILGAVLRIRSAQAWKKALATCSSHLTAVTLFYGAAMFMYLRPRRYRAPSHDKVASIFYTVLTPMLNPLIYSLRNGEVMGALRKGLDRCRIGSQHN
Method in brief: as §1

OR2V2 = system: T10, OR2V2
T10 sequence (whole entry): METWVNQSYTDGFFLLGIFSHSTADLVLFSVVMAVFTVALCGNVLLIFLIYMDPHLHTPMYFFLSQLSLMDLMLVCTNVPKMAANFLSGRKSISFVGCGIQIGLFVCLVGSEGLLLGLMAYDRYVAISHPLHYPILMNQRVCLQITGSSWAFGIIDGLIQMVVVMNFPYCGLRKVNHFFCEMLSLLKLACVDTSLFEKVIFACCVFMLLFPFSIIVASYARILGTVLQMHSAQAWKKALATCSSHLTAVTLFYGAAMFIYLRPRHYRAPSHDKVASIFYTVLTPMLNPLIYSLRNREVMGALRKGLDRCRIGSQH
Method in brief: as §1

OR2W1 (Homo sapiens) = molecular target: T11, OR2W1 (Homo sapiens) (UniProt Q9Y3N9)
T11 sequence (whole entry): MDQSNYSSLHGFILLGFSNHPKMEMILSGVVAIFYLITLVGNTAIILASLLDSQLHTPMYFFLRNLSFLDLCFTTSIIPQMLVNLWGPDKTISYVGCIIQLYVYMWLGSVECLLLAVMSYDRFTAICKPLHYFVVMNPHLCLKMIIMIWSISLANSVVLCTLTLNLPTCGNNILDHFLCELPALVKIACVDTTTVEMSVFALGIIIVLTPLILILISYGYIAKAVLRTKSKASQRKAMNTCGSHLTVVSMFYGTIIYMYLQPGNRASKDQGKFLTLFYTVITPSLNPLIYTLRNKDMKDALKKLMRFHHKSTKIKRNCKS
Method in brief: as §1

OR2T1 [2] = system: OR2T1; remark: listed apart in the source
Method in brief: as §1

OR2T1 [3] = system: OR2T1; remark: listed apart in the source
Method in brief: as §1
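Further: active if original authors judged signal statistically different from baseline.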

Row | Compound | odorant receptor agonist call (OR2T1 [1]) | odorant receptor agonist call (OR2T2) | odorant receptor agonist call (OR2T3 (Homo sapiens)) | odorant receptor agonist call (OR2T4 (Homo sapiens)) | odorant receptor agonist call (OR2T4) | odorant receptor agonist call (OR2T5) | odorant receptor agonist call (OR2T6) | odorant receptor agonist call (OR2T8) | odorant receptor agonist call (OR2V1) | odorant receptor agonist call (OR2V2) | odorant receptor agonist call (OR2W1 (Homo sapiens)) | odorant receptor agonist call (OR2T1 [2]) | odorant receptor agonist call (OR2T1 [3])
1 | COc1cc(C=O)ccc1O | inactive | inactive | inactive | inactive | inactive | inactive | inactive | inactive | inactive | inactive | – | – | –
2 | CCCCCCOC(=O)CCC | inactive | inactive | inactive | – | inactive | inactive | inactive | inactive | inactive | inactive | inactive | – | –
3 | CC12CCC(C1)C(C)(C)C2=O (configuration not stated) | inactive | inactive | inactive | – | inactive | inactive | inactive | inactive | inactive | inactive | inactive | – | –
4 | CC(=O)C(C)=O | inactive | inactive | inactive | – | inactive | inactive | inactive | inactive | inactive | inactive | – | – | –
5 | CCCCCCCC=CC=O | inactive | inactive | inactive | – | inactive | inactive | inactive | inactive | inactive | inactive | – | – | –
6 | CCCCO | inactive | inactive | inactive | inactive | inactive | inactive | inactive | inactive | inactive | inactive | – | – | –
7 | C=CCc1ccc(OC)c(OC)c1 | inactive | inactive | inactive | – | inactive | inactive | inactive | inactive | inactive | inactive | – | – | –
8 | CC1CCC(C(C)C)C(O)C1 (configuration not stated) | inactive | inactive | inactive | inactive | inactive | active | inactive | inactive | inactive | inactive | active | – | –
9 | CCCC(=O)O | active | inactive | inactive | inactive | inactive | inactive | inactive | inactive | inactive | inactive | inactive | active | active
10 | CC(C)CCC(=O)O | inactive | inactive | inactive | – | inactive | inactive | inactive | inactive | inactive | inactive | active | – | –
11 | CCCCCCCCOC(C)=O | inactive | inactive | inactive | – | inactive | inactive | inactive | inactive | inactive | inactive | inactive | – | –
12 | CCCCCCCC=O | inactive | inactive | inactive | inactive | inactive | inactive | inactive | inactive | inactive | inactive | active | – | –
13 | C=CCSCC=C | inactive | inactive | inactive | – | inactive | inactive | inactive | inactive | inactive | inactive | active | – | –
